Measured values reported in the supplement of paper PMC10849652.
The list shows a part of the results.

Chains of the proteins cited; added tags and fusions are not shown. Lines headed by an entry give the natural chain unless they say otherwise; changes in a name come on top.
UniProt Q14257: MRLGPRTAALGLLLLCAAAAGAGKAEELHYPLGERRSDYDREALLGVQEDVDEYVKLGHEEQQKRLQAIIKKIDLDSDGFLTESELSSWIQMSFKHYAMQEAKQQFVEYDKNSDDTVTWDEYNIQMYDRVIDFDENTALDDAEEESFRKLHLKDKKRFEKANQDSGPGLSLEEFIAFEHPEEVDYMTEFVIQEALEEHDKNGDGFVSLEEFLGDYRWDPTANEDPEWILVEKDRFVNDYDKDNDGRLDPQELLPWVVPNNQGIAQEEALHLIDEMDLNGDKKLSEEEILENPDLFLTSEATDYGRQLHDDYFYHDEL
UniProt Q6NUK4: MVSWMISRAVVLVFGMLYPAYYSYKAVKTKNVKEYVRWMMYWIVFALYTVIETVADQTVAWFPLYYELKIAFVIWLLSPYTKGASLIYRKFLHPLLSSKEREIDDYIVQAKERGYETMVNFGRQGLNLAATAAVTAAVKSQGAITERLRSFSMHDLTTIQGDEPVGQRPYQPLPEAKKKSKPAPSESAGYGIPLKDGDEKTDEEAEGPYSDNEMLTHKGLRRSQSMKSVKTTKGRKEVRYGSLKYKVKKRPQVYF
UniProt P35249, whole entry, looked up: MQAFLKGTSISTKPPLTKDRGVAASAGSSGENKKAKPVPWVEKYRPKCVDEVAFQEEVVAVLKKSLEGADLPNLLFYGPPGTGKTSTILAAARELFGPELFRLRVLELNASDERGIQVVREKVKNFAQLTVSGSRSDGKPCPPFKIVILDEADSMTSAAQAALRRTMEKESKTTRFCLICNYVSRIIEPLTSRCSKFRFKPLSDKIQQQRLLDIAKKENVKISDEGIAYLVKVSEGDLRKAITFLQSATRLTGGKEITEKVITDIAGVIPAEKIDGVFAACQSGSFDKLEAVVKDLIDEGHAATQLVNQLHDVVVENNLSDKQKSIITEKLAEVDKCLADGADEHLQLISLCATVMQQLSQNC
UniProt Q9H0Z9: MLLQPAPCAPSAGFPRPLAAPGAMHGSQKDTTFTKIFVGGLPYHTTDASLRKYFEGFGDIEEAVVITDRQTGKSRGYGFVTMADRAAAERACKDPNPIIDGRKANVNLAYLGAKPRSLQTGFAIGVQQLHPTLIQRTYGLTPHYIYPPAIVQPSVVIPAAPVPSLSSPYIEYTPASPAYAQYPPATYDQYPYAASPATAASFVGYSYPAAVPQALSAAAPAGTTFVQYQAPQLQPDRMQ
UniProt P35241, whole entry, looked up: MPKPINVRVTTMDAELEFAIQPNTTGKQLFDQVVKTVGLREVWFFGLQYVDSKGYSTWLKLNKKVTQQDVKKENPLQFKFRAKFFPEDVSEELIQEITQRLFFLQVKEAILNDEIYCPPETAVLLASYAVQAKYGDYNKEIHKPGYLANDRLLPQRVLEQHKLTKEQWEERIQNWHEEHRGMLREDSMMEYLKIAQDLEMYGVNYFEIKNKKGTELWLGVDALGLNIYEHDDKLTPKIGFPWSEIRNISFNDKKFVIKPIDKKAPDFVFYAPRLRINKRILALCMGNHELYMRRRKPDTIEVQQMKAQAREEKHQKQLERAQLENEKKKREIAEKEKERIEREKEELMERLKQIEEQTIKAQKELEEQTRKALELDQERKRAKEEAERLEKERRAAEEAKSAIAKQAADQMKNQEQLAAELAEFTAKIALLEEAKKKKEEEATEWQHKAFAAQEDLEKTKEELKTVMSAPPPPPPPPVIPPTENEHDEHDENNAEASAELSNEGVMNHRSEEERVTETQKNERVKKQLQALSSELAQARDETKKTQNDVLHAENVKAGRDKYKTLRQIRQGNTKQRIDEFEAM
UniProt Q9Y2P8: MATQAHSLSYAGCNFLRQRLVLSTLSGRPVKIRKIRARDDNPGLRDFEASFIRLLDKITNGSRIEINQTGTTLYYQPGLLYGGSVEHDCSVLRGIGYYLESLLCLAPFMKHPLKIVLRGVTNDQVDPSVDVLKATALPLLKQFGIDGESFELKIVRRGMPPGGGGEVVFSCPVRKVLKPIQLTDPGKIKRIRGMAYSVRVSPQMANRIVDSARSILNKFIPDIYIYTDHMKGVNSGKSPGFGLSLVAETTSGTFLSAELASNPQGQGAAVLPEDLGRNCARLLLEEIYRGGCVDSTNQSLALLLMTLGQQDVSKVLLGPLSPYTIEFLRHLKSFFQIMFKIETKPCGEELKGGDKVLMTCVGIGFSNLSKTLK
UniProt P34096: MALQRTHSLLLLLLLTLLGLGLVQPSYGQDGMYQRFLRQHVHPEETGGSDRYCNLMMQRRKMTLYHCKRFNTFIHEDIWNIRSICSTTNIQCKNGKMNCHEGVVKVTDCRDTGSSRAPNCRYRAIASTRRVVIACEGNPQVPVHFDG
UniProt P84095: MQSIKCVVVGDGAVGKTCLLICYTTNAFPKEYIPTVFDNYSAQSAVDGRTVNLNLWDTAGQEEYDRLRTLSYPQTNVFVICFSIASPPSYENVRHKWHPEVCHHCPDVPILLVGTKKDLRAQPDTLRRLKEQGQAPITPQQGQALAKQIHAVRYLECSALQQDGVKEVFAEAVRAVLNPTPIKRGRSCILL
UniProt P40937, whole entry, looked up: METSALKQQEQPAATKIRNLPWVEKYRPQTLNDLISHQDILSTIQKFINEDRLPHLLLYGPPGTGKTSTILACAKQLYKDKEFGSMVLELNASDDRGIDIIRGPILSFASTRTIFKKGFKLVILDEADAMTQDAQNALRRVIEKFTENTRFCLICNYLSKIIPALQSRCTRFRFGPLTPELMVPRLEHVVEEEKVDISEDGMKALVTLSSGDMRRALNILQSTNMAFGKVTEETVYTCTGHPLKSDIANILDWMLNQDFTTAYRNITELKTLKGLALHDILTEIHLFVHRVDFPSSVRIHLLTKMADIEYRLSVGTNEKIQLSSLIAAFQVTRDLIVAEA
UniProt Q9Y580: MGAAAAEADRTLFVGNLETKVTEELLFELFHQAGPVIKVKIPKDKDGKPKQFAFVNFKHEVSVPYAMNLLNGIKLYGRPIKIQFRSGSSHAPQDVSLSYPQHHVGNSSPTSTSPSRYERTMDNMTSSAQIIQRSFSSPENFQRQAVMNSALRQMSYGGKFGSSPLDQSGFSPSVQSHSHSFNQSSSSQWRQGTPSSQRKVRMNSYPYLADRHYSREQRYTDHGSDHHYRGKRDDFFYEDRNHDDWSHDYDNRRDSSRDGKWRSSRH
UniProt Q4ADV7: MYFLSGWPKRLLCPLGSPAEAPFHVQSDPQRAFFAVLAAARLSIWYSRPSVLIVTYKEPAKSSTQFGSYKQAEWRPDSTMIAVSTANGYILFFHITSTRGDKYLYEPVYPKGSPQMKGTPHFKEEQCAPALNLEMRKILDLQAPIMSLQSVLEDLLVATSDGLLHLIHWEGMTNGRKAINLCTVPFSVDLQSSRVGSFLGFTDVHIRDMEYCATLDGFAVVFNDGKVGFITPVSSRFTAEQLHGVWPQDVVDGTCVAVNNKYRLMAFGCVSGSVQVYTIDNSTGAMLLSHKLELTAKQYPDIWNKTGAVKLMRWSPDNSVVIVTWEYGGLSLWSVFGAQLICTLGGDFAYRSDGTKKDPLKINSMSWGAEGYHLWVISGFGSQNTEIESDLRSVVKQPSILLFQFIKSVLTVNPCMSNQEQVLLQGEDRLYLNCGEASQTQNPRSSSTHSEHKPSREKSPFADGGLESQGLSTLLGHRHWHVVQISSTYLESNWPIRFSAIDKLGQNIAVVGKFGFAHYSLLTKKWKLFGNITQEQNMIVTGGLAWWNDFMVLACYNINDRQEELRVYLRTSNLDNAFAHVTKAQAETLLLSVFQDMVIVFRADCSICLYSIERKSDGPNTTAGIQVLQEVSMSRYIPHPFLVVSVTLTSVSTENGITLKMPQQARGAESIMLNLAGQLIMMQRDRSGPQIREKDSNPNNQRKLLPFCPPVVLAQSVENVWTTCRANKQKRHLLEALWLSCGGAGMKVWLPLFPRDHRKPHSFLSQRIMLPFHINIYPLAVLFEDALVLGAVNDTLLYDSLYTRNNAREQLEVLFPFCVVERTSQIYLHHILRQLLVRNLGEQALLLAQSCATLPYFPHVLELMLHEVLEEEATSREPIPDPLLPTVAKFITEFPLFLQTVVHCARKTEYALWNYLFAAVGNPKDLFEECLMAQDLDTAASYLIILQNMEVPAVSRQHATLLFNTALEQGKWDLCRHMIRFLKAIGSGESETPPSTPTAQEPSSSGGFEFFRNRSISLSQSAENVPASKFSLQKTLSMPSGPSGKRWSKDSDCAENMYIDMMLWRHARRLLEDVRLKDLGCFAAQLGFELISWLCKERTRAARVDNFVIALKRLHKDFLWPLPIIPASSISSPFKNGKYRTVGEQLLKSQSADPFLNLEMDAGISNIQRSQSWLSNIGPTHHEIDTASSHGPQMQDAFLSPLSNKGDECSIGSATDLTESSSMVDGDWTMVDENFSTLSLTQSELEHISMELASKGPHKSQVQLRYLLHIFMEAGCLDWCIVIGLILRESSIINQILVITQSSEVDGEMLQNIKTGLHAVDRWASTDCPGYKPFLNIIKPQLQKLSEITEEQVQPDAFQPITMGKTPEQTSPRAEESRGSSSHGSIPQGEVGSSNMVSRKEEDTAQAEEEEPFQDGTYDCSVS
UniProt O00287: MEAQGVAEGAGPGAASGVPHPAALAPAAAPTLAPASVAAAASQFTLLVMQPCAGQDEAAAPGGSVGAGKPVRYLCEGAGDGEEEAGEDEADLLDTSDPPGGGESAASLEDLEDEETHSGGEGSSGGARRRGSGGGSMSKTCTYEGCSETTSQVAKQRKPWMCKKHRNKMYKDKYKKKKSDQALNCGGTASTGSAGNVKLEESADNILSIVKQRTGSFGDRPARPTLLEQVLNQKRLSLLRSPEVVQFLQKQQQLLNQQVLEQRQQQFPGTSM
UniProt Q04864: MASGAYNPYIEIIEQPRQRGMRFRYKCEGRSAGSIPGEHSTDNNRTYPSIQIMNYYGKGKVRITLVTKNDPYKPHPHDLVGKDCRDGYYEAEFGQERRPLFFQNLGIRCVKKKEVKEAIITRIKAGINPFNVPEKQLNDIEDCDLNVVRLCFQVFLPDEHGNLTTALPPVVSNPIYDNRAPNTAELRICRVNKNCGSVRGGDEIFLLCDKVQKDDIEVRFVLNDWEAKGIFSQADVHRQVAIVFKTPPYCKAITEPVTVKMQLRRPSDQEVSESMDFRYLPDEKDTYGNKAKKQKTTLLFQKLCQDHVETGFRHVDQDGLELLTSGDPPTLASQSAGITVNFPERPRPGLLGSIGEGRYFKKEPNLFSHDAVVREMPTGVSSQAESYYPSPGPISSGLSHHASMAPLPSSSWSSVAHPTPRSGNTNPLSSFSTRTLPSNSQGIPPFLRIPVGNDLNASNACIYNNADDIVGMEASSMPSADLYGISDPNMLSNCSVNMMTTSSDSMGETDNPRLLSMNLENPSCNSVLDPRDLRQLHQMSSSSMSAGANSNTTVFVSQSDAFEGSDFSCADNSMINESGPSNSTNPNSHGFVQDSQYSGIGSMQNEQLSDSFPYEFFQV
UniProt Q8WZ73: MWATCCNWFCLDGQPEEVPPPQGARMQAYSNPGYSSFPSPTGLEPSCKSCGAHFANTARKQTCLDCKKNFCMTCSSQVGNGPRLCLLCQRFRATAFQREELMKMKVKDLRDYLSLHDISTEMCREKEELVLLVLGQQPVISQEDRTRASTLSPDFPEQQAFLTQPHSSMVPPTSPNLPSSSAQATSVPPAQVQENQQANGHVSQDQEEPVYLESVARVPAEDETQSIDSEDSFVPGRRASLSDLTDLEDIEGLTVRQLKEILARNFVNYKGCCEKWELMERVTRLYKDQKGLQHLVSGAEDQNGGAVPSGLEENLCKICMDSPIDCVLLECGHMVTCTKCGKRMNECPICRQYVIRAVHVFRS
UniProt Q8TAC1: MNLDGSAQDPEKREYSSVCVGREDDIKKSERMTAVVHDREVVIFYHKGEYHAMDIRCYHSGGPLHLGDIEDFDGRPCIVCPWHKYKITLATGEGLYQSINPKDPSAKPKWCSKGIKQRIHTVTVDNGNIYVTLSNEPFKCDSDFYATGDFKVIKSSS
UniProt Q6JBY9, whole entry, looked up: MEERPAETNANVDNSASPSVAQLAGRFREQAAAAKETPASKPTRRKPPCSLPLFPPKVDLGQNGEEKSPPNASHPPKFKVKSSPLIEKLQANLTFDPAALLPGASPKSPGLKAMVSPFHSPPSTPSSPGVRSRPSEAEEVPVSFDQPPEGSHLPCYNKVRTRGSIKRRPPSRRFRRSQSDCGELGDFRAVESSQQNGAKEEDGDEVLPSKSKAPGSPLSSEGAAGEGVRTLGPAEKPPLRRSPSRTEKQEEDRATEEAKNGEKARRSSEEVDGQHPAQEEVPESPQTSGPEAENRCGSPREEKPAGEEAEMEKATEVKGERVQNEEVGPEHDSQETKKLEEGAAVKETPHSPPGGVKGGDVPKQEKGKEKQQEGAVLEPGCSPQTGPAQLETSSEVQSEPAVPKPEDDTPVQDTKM
UniProt P08134, whole entry, looked up: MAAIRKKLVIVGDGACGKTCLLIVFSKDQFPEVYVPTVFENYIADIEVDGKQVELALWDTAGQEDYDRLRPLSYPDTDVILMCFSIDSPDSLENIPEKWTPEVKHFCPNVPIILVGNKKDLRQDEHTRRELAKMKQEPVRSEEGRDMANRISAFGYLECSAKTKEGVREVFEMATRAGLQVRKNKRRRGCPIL

Experiments:
Assay in all cases: log2 fold change, soluble protein after heating vs DMSO (PISA); higher = thermal stabilisation; K562 cells, 10 uM, 30 min; active = over 0.2 and 3.5 SD of the protein, either way, in both replicates (recomputed)
[1] = compound: CC[C@@H]1C(=O)N(C)c2cnc(Nc3ccc(C(=O)NC4CCN(C)CC4)cc3OC)nc2N1C1CCCC1
How it was run: (§1)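 Aliquots of K562 cells (2×10^6 cells/mL) treated with 10 μM compound for 30 min were heated for 3 min over 48°C-58°C. After pooling and extraction in PBS with 0.5% NP-40 at 4°C, soluble protein from a 21,000xg, 90 min spin was quantified by TMTpro 16plex LC-MS/MS with channel sums equalised. Thermal stability is expressed against control samples, from duplicates, as a log2 fold change.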

volasertib = compound: CC[C@@H]1C(=O)N(C)c2cnc(Nc3ccc(C(=O)N[C@H]4CC[C@H](N5CCN(CC6CC6)CC5)CC4)cc3OC)nc2N1C(C)C [volasertib]
How it was run: as §1

[2] = compound: CC[C@H](C)N1C=C(C2=C(C=C(C=C21)C3=CN=C(C=C3)N4CCNCC4)C(=O)NCC5=C(C=C(NC5=O)C)C)C
How it was run: as §1

epoxomicin = compound: CC[C@H](C)[C@@H](C(=O)N[C@@H]([C@@H](C)O)C(=O)N[C@@H](CC(C)C)C(=O)[C@]1(CO1)C)NC(=O)[C@H]([C@@H](C)CC)N(C)C(=O)C [epoxomicin]
How it was run: as §1

[3] = compound: CCn1c(C(=O)N(C2CC2)C2CC2)cc2c3c(ncn3C)c(Nc3cc(C)n(C)n3)nc21
How it was run: as §1

[4] = compound: CCn1cc(-c2ccnc3[nH]c(-c4cccc(CN(C)C)c4)cc23)c(-c2ccc(NC(=O)N(C)C)cc2)n1
How it was run: as §1

[5] = compound: CN(C)CC(=O)Nc1ccc2[nH]c(=O)c3ccccc3c2c1
How it was run: as §1

rosiglitazone = compound: CN(CCOC1=CC=C(C=C1)C[C@H]2C(=O)NC(=O)S2)C3=CC=CC=N3 (racemic) [rosiglitazone]
How it was run: as §1

[6] = compound: CN1C2=C(C3=C1C(=O)N(N=C3)CC4=CC(=CC=C4)N)SC(=C2)S(=O)C
How it was run: as §1

[7] = compound: CN1CCC(CNc2ccc3ncc(-c4cccc(OC(F)(F)F)c4)n3n2)CC1
How it was run: as §1

Measured: log2 fold change

RCC2 (UniProt Q9P258)
inactive: [1] -0.024 | volasertib -0.018 | [2] 0.033 | epoxomicin 0.011 | [3] 0.011 | [4] -0.002 | [5] 0.012 | rosiglitazone 0.034 | [6] -0.076 | [7] -0.043

RCN2 isoform 2 (UniProt Q14257)
inactive: [1] 0 | volasertib -0.106 | [2] -0.004 | epoxomicin 0.015 | [3] -0.011 | [4] 0.029 | [5] -0.01 | rosiglitazone 0.023 | [6] -0.009 | [7] 0.084

RNF11 (UniProt Q9Y3C5)
inactive: [1] -0.032

REEP3 (UniProt Q6NUK4)
inactive: [1] 0.02 | volasertib 0.21 | [2] 0.046 | epoxomicin -0.059 | [3] 0.01 | [4] 0.02 | [5] 0.061 | rosiglitazone 0.061 | [6] 0.119 | [7] -0.109

RMDN1 (UniProt Q96DB5)
inactive: [1] -0.079 | volasertib -0.109 | [2] 0.042 | epoxomicin 0.028 | [3] 0.03 | [4] -0.062 | [5] 0.013 | rosiglitazone 0.02 | [6] -0.073 | [7] -0.201

RFC4 (UniProt P35249)
inactive: [1] -0.029 | volasertib -0.054 | [2] 0.028 | epoxomicin 0.103 | [3] -0.026 | [4] -0.052 | [5] 0.014 | rosiglitazone 0.02 | [6] -0.045 | [7] -0.043

RNF126 (UniProt Q9BV68)
inactive: [1] 0.002 | volasertib -0.135 | [2] -0.014 | epoxomicin 0.067 | [3] -0.023 | [4] -0.064 | [5] -0.03 | rosiglitazone 0.009 | [6] -0.029 | [7] 0.033

RBM38 (UniProt Q9H0Z9)
inactive: [1] 0.027 | volasertib 0.016 | [2] 0.062 | epoxomicin 0.173 | [3] 0.034 | [4] -0.103 | [5] -0.018 | rosiglitazone 0.073 | [6] -0.039 | [7] 0.062

RFC2 (UniProt P35250)
inactive: [1] -0.03 | volasertib -0.04 | [2] 0.024 | epoxomicin 0.039 | [3] 0.024 | [4] -0.028 | [5] -0.001 | rosiglitazone 0.048 | [6] -0.028 | [7] 0.005

RNF213 isoform 4 (UniProt Q63HN8)
inactive: [1] 0.009 | volasertib 0.057 | [2] -0.061 | epoxomicin -0.111 | [3] -0.071 | [4] 0.086 | [5] 0.213 | rosiglitazone 0.031 | [6] 0.038 | [7] 0.02

RHOT1 isoform 3 (UniProt Q8IXI2)
inactive: [1] -0.027 | volasertib -0.106 | [2] -0.015 | epoxomicin 0.03 | [3] -0.037 | [4] 0.016 | [5] -0.004 | rosiglitazone 0.038 | [6] -0.016 | [7] -0.159

RDX (UniProt P35241)
inactive: [1] 0.04 | volasertib 0.044 | [2] 0.015 | epoxomicin 0.171 | [3] 0.025 | [4] -0.005 | [5] -0.006 | rosiglitazone 0.037 | [6] -0.039 | [7] 0.013

RCL1 (UniProt Q9Y2P8)
inactive: [1] 0.131 | volasertib 0.084 | [2] 0.029 | epoxomicin -0.238 | [3] -0.007 | [4] 0.239 | [5] 0.048 | rosiglitazone -0.067 | [6] 0.271 | [7] 0.239

RNASE4 (UniProt P34096)
inactive: [1] -0.018 | volasertib 0 | [2] -0.075 | epoxomicin -0.185 | [3] 0.015 | [4] -0.104 | [5] -0.097 | rosiglitazone 0.061 | [7] 0.05

RMND1 (UniProt Q9NWS8)
inactive: [1] 0.018 | volasertib -0.091 | [2] 0.029 | epoxomicin 0.024 | [3] 0.009 | [4] -0.072 | [5] 0.079 | rosiglitazone 0.034 | [6] -0.005 | [7] -0.034

RNF113A (UniProt O15541)
inactive: [1] 0.039 | volasertib 0.015 | [2] -0.035 | epoxomicin 0.042 | [3] 0.01 | [4] 0.004 | [5] -0.036 | rosiglitazone -0.001 | [6] -0.056 | [7] -0.015

RELN (UniProt P78509)
inactive: [1] 0.011 | volasertib 0.037 | [2] 0.218 | epoxomicin -0.04 | [3] 0.051 | [4] -0.002 | [5] -0.051 | rosiglitazone 0.074 | [6] 0.062 | [7] 0.165

RHOG (UniProt P84095)
inactive: [1] 0.011 | volasertib 0.024 | [2] -0.029 | epoxomicin -0.004 | [3] 0.026 | [4] 0.012 | [5] -0.019 | rosiglitazone -0.006 | [6] -0.041 | [7] 0.101

RFC5 (UniProt P40937)
inactive: [1] -0.015 | volasertib -0.06 | [2] 0.04 | epoxomicin 0.045 | [3] 0.019 | [4] -0.019 | [5] 0.01 | rosiglitazone 0.031 | [6] -0.039 | [7] -0.079

RBM7 (UniProt Q9Y580)
inactive: [1] -0.036 | volasertib 0.084 | [2] 0.012 | epoxomicin 0 | [3] -0.123 | [4] 0.012 | [5] -0.01 | [6] 0.23 | [7] -0.26

RIC1 (UniProt Q4ADV7)
inactive: [1] -0.067 | volasertib -0.209 | [2] 0.165 | epoxomicin 0 | [3] -0.078 | [4] 0.061 | [5] 0.151 | rosiglitazone -0.032 | [6] -0.307 | [7] -0.001

RFXAP (UniProt O00287)
inactive: [1] 0.052 | volasertib 0.048 | [2] 0.034 | epoxomicin 0.043 | [3] -0.114 | [5] -0.018 | rosiglitazone -0.004 | [6] 0.031

REL (UniProt Q04864)
inactive: [1] 0.045 | volasertib -0.176 | [2] -0.022 | epoxomicin 0.043 | [4] 0.159 | [5] 0.003 | [6] 0.011 | [7] 0.141

RNF20 (UniProt Q5VTR2)
inactive: [1] -0.16 | volasertib -0.267 | [2] 0.04 | epoxomicin 0.07 | [3] -0.006 | [4] -0.047 | rosiglitazone 0.089 | [6] 0 | [7] -0.204

RNF123 isoform 2 (UniProt Q5XPI4)
inactive: [1] -0.135 | volasertib -0.333 | [2] 0.051 | epoxomicin 0.063 | [3] -0.021 | [4] -0.095 | [5] 0.015 | rosiglitazone -0.001 | [6] -0.015 | [7] -0.115

RHBDD1 (UniProt Q8TEB9)
inactive: [1] 0.076 | volasertib -0.036 | [2] 0.111 | epoxomicin -0.004 | [3] 0.093 | [4] 0.015 | [5] -0.199 | rosiglitazone -0.039 | [6] -0.037 | [7] -0.222

RFFL (UniProt Q8WZ73)
inactive: [1] 0.002 | volasertib -0.198 | [2] 0.061 | epoxomicin -0.016 | [3] -0.013 | [5] -0.02 | rosiglitazone -0.076 | [6] 0.179

RFESD isoform 2 (UniProt Q8TAC1)
inactive: [1] 0.026 | volasertib 0.089 | [2] -0.011 | epoxomicin -0.02 | [3] -0.008 | [4] -0.043 | [5] -0.043 | rosiglitazone 0 | [6] -0.108 | [7] -0.039

RCSD1 (UniProt Q6JBY9)
inactive: [1] -0.009 | volasertib 0.055 | [2] -0.075 | epoxomicin 0.006 | [3] -0.028 | [4] 0.086 | [5] -0.067 | rosiglitazone -0.017 | [6] -0.051 | [7] -0.045

RHOC (UniProt P08134)
inactive: [1] 0.06 | volasertib 0.023 | [2] -0.024 | epoxomicin 0.021 | [3] -0.03 | [4] -0.034 | [5] 0.016 | rosiglitazone -0.003 | [6] -0.093 | [7] 0.062

Reprinted at random: 2 records from the list
RCSD1 (UniProt Q6JBY9)
inactive: [1] -0.009 | volasertib 0.055 | [2] -0.075 | epoxomicin 0.006 | [3] -0.028 | [4] 0.086 | [5] -0.067 | rosiglitazone -0.017 | [6] -0.051 | [7] -0.045

RHOC (UniProt P08134)
inactive: [1] 0.06 | volasertib 0.023 | [2] -0.024 | epoxomicin 0.021 | [3] -0.03 | [4] -0.034 | [5] 0.016 | rosiglitazone -0.003 | [6] -0.093 | [7] 0.062

Continuation.

RIMKLB (UniProt Q9ULI2)
inactive: [1] 0.259 | volasertib 0.032 | [2] 0.047 | epoxomicin -0.06 | [3] -0.03 | rosiglitazone 0.001
